Assay results: the supplement of paper PMC5407854, “Inhibitor of ppGalNAc-T3-mediated O-glycosylation blocks cancer cell invasiveness and lowers FGF23 levels” (eLife, 2017)
This is one part of the list. Most values lie at the level of the controls, where differences are scatter.

Tested on: ppGalNAc-T3 sensor
Experiment: T3 sensor activation Q score (MG/GFP ratio z-score vs DMSO controls) (SD units); higher = more sensor activation (inhibition of ppGalNAc-T3 glycosylation)
Details: HEK293 sensor cells; 10 µM; 6 h
Description: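 Cells were treated with compound at 10 uM for 6 h, then MG/GFP ratio was read by flow cytometry (10,000 cells per well, duplicate wells). Q = (R - R_neg)/SD_neg relative to DMSO vehicle controls; the signal rises when the glycosyltransferase is inhibited.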

SMILES	T3 sensor activation Q score
CN1CCN(Cc2c(Cl)cccc2Cl)CC1	1.26
COc1ccc(O)c(CN2CCN(c3cc(C)ccc3C)CC2)c1	-0.24
CCOc1ccccc1N1CCN(Cc2ccccc2F)CC1	-0.03
COc1ccc(CN2CCN(c3ccccc3C)CC2)cc1	0.425
Cc1ccccc1CN1CCN(c2ccccc2F)CC1	0.545
COc1ccccc1N1CCN(Cc2ccc(C)cc2)CC1	-0.01
CCN1CCN(Cc2ccc(Cl)cc2)CC1	0.08
COc1ccc(CN2CCN(c3ccccc3F)CC2)cc1	0.225
CCOc1ccc(CN2CCN(c3ccccc3C)CC2)cc1	-0.15
Cc1ccsc1CN1CCN(C)CC1	0.44
COc1cccc(CN2CCN(Cc3ccccc3)CC2)c1	-0.845
COc1ccc(N2CCN(Cc3cc(Br)ccc3OC)CC2)cc1	0.625
COc1ccc(Br)cc1CN1CCN(C)CC1	0.3
CCOc1ccccc1N1CCN(Cc2ccc(F)cc2F)CC1	0.595
COc1cc(Br)c(CN2CCN(c3ccccc3)CC2)cc1OC	0.41
CCOc1ccccc1CN1CCN(c2ccccc2)CC1	0.15
COc1ccc(CN2CCN(c3cccc(C)c3C)CC2)cc1C	-0.105
Oc1c(Cl)cc(-c2cc(Cl)c(O)c(Cl)c2)cc1Cl	-0.59
CN1CCN(Cc2ccc[nH]2)CC1	0.015
COc1cccc(CN2CCN(c3ccc(F)cc3)CC2)c1OC	0.345

SMILES	T3 sensor activation Q score
C/C=C(\C)CN(C)CCc1ccccn1	0.28
CCN1CCN(Cc2ccc(C)cc2C)CC1	-0.04
Cc1ccccc1N1CCN(Cc2cccc([N+](=O)[O-])c2)CC1	0.25
COc1cccc(CN2CCN(c3ccccc3Cl)CC2)c1	-0.15
COc1ccc(OC)c(CN2CCN(c3ccc(F)cc3)CC2)c1	0.55
CCOc1ccccc1N1CCN(Cc2ccc(F)c(F)c2)CC1	-0.055
CCOc1ccccc1CN1CCN(c2ccccc2Cl)CC1	-0.345
Cc1ccccc1CN1C[C@@H]2C[C@@H](C1)c1cccc(=O)n1C2	0.475
Cc1cc(Br)c2[nH]cc(CCN)c2c1	0.05
COc1cccc(CN2CCN(c3cccc(Cl)c3)CC2)c1OC	-0.015
CCOc1ccc(C(CN)CC(=O)O)cc1 (stereo not given)	0.845
COc1ccc(N2CCN(Cc3cccc(F)c3)CC2)cc1	0.27
C=CCOc1ccccc1CN1CCN(c2ccccc2F)CC1	0.355
COc1cccc(N2CCN(Cc3ccc(Br)cc3)CC2)c1	0.435
CN1CCC(O)(c2ccccc2)C(C(=O)c2ccccc2)C1 (stereo not given)	0.9
COc1cc(C)c(CN2CCN(c3ccc(F)cc3)CC2)cc1C	0.9
CSc1ccc(CN2CCN(c3ccccc3C)CC2)cc1	0.21
COc1cc(CN2CCN(Cc3ccccc3)CC2)cc(OC)c1	0.13
Clc1ccccc1N1CCN(Cc2ccccc2)CC1	0.21
COc1ccc(/C=C/C2=CCN(C)CC2)cc1	0.125

Part of the list above in order of molar mass, largest number first:
SMILES	T3 sensor activation Q score
CCOc1ccccc1N1CCN(Cc2ccc(F)c(F)c2)CC1	-0.055
COc1ccc(OC)c(CN2CCN(c3ccc(F)cc3)CC2)c1	0.55
CCN1CCN(Cc2ccc(C)cc2C)CC1	-0.04
